These are yes or no findings as the source states them, for the method shown. Binding seen in cells or lysates may run through a third protein. Here binding means that the protein was enriched with, or labelled near, the bait; the list need not be complete.
Molecular target: Flag-APOE (UniProt P02649)
Test: affinity purification with mass spectrometry; LNCaP cells transfected with Flag-APOE vector; immunoprecipitation with anti-Flag or anti-AR antibodies, LC-MS/MS

Chains of the proteins cited; added tags and fusions are not shown. Residues count along the entry.
UniProt P02649, residues 19-317: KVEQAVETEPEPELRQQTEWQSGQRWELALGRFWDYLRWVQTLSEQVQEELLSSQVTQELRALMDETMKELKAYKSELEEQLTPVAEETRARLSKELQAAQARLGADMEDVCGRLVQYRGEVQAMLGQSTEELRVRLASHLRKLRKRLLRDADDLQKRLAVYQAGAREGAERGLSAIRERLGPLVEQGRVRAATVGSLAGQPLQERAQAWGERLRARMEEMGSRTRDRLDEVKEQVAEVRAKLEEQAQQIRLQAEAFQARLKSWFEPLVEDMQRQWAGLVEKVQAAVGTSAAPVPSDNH
UniProt Q14258: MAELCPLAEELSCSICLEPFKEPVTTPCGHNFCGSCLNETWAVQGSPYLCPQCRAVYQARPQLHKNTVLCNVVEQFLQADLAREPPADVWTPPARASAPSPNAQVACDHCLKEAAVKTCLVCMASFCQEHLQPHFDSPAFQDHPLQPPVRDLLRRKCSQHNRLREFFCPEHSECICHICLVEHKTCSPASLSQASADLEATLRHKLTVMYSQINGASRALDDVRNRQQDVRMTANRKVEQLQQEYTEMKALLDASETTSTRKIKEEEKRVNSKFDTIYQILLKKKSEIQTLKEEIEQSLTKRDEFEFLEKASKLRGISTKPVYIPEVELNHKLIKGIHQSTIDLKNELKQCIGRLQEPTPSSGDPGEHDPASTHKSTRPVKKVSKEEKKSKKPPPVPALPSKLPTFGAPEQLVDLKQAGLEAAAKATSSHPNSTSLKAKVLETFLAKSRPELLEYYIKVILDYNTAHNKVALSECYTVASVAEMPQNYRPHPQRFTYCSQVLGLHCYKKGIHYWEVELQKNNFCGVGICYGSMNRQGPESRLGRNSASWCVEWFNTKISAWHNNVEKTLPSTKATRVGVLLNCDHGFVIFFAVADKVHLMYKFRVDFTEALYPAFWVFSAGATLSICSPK

binding: binds
Substance: Tripartite motif 25 (from UniProt Q14258 1-630) (enzyme)
